PubChem BioAssay AID1224826 – NIAID, 2016

- Assay: 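Knock-downs that raise or lower Tnf reporter signal after endotoxin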 (primary screen)
- Cells: RAW264.7 G9 macrophages from mouse bearing reporters for p65 (GFP) and the Tnf promoter (mCherry)
- Knock-down reagent: siRNA pool against mouse genes, 100 nM
- Duration: 16 h of LPS stimulation, after 2 days of siRNA transfection
- Conditions: bacterial lipopolysaccharide (Salmonella minnesota R595), 10 ng/ml
- Measured: 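Nuclear mCherry signal of the Tnf promoter reporter measured by imaging after background removal, scaled to each plate median and turned into robust z-scores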
- Scale: Tnf reporter robust z-score: higher = stronger Tnf promoter reporter signal after LPS; Tnf reporter intensity: higher = stronger Tnf promoter reporter signal
- Call rule: 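a well counts as active at a score of -1.3 or below (Tlr4 knock-down control median) or above 3 (raised signal); controls and wells holding fewer than 50 cells are excluded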
- Meaning of the calls: active = Tnf reporter clearly lowered or raised; inactive = no clear change in Tnf reporter
Here is one part, drawn at random, of about 17,000 deposited reagents. About 1,110 of all reagents (6.6%) count as active. 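Active means lowered or raised reporter signal; replicate intensities are raw and not normalised per plate.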 Unmarked entries are inactive.

no.	Gene	PubChem SID	Tnf reporter robust z-score	fewer than 50 cells in well	Tnf reporter intensity, replicate 1	Tnf reporter intensity, replicate 2
1	Pole3 (GeneID 59001)	SID315471939	-1.58 (active)	enough cells in well	66.5	54.3
2	Krtcap2 (GeneID 66059)	SID315472187	0.42	enough cells in well	126	214
3	Or10d5 (GeneID 258825)	SID315480469	0.05	enough cells in well	150	136
4	Phkg1 (GeneID 18682)	SID315468497	0.11	enough cells in well	185	184
5	Scgb1a1 (GeneID 22287)	SID315469958	-1.57 (active)	enough cells in well	149	86.6
6	Calhm2 (GeneID 72691)	SID315474605	0.33	enough cells in well	284	76.3
7	Tmsb4x (GeneID 19241)	SID315468789	0.2	enough cells in well	114	110
8	Ddx42 (GeneID 72047)	SID315474433	-1.1	enough cells in well	163	65.8
9	Havcr1 (GeneID 171283)	SID315477355	-0.8	enough cells in well	158	151
10	Sptssa (GeneID 104725)	SID315476455	0.59	enough cells in well	311	93.3
11	Sirt3 (GeneID 64384)	SID315472098	-0.71	enough cells in well	117	75.5
12	Gabrd (GeneID 14403)	SID315466802	1.48	enough cells in well	365	372
13	Acp1 (GeneID 11431)	SID315465251	-0.18	enough cells in well	138	183
14	Pnma3 (GeneID 245468)	SID315479817	0.94	enough cells in well	207	134
15	Hmgb4 (GeneID 69317)	SID315473784		fewer than 50 cells per well; well left out of calls	757	306
16	Akr1c14 (GeneID 105387)	SID315476488	-0.44	enough cells in well	189	123
17	Ruvbl2 (GeneID 20174)	SID315469064	0.12	enough cells in well	348	196
18	Rnf214 (GeneID 235315)	SID315479240	-0.84	enough cells in well	125	133
19	Pih1d2 (GeneID 72614)	SID315474591		fewer than 50 cells per well; well left out of calls	255	68.1
20	Aqp1 (GeneID 11826)	SID315465478	-0.3	enough cells in well	160	143
21	Map2k5 (GeneID 23938)	SID315470241	0	enough cells in well	192	124
22	Tnik (GeneID 665113)	SID315481991	-0.1	enough cells in well	171	149
23	Pop5 (GeneID 117109)	SID315477080	-1.02	enough cells in well	79.8	90
24	Slc66a3 (GeneID 217430)	SID315478125	0.89	enough cells in well	192	182
25	Trim60 (GeneID 234329)	SID315479151	-0.48	enough cells in well	129	85.5
26	Cyp1a2 (GeneID 13077)	SID315466217	0.86	enough cells in well	257	309
27	Atp5pd (GeneID 71679)	SID315474274		fewer than 50 cells per well; well left out of calls	115	142
28	Flnb (GeneID 286940)	SID315481026	-0.76	enough cells in well	237	133
29	Scn8a (GeneID 20273)	SID315469120	-1	enough cells in well	215	118
30	Sgcz (GeneID 244431)	SID315479761	-1.14	enough cells in well	87.3	60.2
31	Capsl (GeneID 75568)	SID315475149	-0.57	enough cells in well	219	48.5
32	Itga2b (GeneID 16399)	SID315467504	0.44	enough cells in well	269	177
33	Trib3 (GeneID 228775)	SID315478655	-0.56	enough cells in well	147	104
34	Foxd4 (GeneID 14237)	SID315466709	-1.06	enough cells in well	176	76.1
35	Ccdc39 (GeneID 51938)	SID315470922	-0.96	enough cells in well	115	99.3
36	Casz1 (GeneID 69743)	SID315477444	1.32	enough cells in well	305	292
37	Zfp33b (GeneID 69623)	SID315473851	0.56	enough cells in well	192	70.1
38	Slc49a4 (GeneID 224132)	SID315478327	0.77	enough cells in well	266	285
39	Ppp1r2-ps9 (GeneID 67395)	SID315472999	-0.05	enough cells in well	140	171
40	4933427D06Rik (GeneID 232217)	SID315478968	1.36	enough cells in well	231	240
41	HMGB2	SID315482036	-1	enough cells in well	179	97.9
42	Ythdf1 (GeneID 228994)	SID315478681		fewer than 50 cells per well; well left out of calls	150	106
43	Or10g9 (GeneID 259112)	SID315480706		fewer than 50 cells per well; well left out of calls	20.3	125
44	Snrpc (GeneID 20630)	SID315469362	-0.96	enough cells in well	110	61
45	Pard6b (GeneID 58220)	SID315471880	-0.1	enough cells in well	151	120
46	St6galnac3 (GeneID 20447)	SID315469241		fewer than 50 cells per well; well left out of calls	51.8	41.1
47	Cc2d1b (GeneID 319965)	SID315481202	-0.17	enough cells in well	157	148
48	Ppp1r3a (GeneID 140491)	SID315477121	0.76	enough cells in well	334	221
49	Ncbp3 (GeneID 66874)	SID315472688	0.34	enough cells in well	262	83.3
50	Wfdc15a (GeneID 68221)	SID315473460	-1.42 (active)	enough cells in well	142	31
51	Retreg3 (GeneID 67998)	SID315473356	0.64	enough cells in well	274	106
52	Sema5a (GeneID 20356)	SID315469181	1.14	enough cells in well	86.9	141
53	Rnf144b (GeneID 218215)	SID315478181	1.3	enough cells in well	259	201
54	Clcn3 (GeneID 12725)	SID315465987	-0.72	enough cells in well	128	129
55	Tap1 (GeneID 21354)	SID315469580	-0.76	enough cells in well	204	80
56	Spef2 (GeneID 320277)	SID315481276		fewer than 50 cells per well; well left out of calls	131	116
57	Rictor (GeneID 78757)	SID315475611		fewer than 50 cells per well; well left out of calls	285	10.3
58	Tardbp (GeneID 230908)	SID315478843	-1.6 (active)	enough cells in well	112	31.9
